These results are taken from paper PMC10531985.

Amino acid sequences for entries named in this document (tags omitted).
UniProt P19338, whole entry: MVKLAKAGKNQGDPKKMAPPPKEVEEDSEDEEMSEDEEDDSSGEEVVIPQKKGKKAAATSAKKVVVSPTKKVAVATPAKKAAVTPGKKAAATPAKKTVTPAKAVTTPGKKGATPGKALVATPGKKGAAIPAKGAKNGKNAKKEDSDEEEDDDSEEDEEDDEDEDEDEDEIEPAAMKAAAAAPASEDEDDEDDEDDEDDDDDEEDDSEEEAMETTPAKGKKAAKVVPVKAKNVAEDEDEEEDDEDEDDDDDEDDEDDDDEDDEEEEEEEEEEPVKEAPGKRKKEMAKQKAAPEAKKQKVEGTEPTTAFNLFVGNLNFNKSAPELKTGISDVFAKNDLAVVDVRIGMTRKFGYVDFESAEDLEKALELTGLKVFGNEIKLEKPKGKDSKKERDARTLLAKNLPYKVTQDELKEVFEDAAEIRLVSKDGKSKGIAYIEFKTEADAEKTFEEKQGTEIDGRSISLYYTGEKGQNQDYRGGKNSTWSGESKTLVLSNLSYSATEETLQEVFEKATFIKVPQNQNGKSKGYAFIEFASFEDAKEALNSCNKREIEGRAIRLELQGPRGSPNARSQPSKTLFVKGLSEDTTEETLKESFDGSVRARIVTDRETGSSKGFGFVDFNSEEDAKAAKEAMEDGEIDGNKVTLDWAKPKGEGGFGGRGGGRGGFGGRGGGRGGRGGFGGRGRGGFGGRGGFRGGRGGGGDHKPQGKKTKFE

Construct, isoform or probe ends are uncertain for at least one entry. For part of these data: Where cells or extracts were used, other partners may take part. For part of these data: At least one verdict rests on a figure or table, not on a statement of the authors.

One data set has as its target cell surface nucleolin (UniProt P19338). Description: competition with a labelled probe. The following applies: 2 uM aptamer vs anti-NCL antibody, flow cytometry on MCF7, Hela, MDA MB 468; EMSA: 5x binding buffer listed as 40 mM Tris, 30 mM KCl, 1 mM MgCl2, 1 mM DTT, pH 8.0, 200 nM probe, room temperature 25 min, gel with 20 mM KCl at 4 C; protein on the cell surface. Background: Mobility shift assays separate free from complexed probe on a gel.
On to GUUAGGGUUUAUGGGAUUG [Apt-3], for which the binding result was “binds”.

A further data set has as its target nucleolin (NCL) (Homo sapiens) (UniProt P19338). Description: SPR. Particulars: 150 mM KCl, Kd not in text, SPR: 10 mM HEPES, 3 mM EDTA, pH 7.4, NCL on CM5 chip, temperature not stated, recombinant protein.
Regarding GUUAGGGUUUAUUAUGGGAUUG [Apt-6], the binding result is reported as “binds”. Consider GUUAGGGUUUAUUGGGAUUG [Apt-4], for which the binding result was “binds”.

GUUAGGGUUUAUUUGGGAUUG [Apt-5]: the binding result is on record as “binds”. For the sequence GUUAGGGUUUGGGAUUG [Apt-1], the binding result is reported as “binds”. On the same count and under the same terms, the entry for GUUAGGGUUUUGGGAUUG [Apt-2] is “binds”.
